Results are given in words; binding and its absence hold for the method and conditions named. Some entries that bind do so weakly or less than the wild type.
Target: T1, BBS4 (UniProt Q96RK4)
T1 sequence: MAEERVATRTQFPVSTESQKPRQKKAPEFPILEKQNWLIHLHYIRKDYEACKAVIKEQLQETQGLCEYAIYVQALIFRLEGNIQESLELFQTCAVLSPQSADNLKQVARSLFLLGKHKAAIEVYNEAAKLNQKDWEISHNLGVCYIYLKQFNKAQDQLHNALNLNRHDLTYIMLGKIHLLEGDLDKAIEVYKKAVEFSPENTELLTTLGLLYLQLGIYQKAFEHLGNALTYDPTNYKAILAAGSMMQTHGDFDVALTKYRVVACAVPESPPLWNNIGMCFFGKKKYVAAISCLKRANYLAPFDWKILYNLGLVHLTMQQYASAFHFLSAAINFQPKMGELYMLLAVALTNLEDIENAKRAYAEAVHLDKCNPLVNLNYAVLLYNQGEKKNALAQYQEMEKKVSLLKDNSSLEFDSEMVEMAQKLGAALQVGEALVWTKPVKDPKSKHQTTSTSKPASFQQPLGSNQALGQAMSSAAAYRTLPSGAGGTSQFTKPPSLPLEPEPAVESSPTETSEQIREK
Assay: two-hybrid; Cytotrap cytoplasmic yeast two-hybrid (Stratagene); screen of a human fetal brain library with full length BBS4 as bait; prey in the pMyr vector

B1: FSTL1 prey construct (residue E56 to the stop codon) (domain or fragment, UniProt Q12841-1 56-308)
chain: EQCKPHKRPVCGSNGKTYLNHCELHRDACLTGSKIQVDYDGHCKEKKSVSPSASPVVCYQSNRDELRRRIIQWLEAEIIPDGWFSKGSNYSEILDKYFKNFDNGDSRLDSSEFLKFVEQNETAINITTYPDQENNKLLRGLCVDALIELSDENADWKLSFQEFLKCLNPSFNPPEKKCALEDETYADGAETEVDCNRCVCACGNWVCTAMTCDGKNQKGAQTQTEEEMTRYVQELQKHQETAEKTKRVSTKEI
binding: binds
